PubChem BioAssay AID652243 | Drosophila RNAi Screening Center – 2013
The deposit covers about 24,000 reagents; below is an unselected part of those that have a named target and a result. Over the whole deposit, 246 (1%) got an active call. 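Plates not normalised; calls are printed but the firefly/Renilla ratio behind them is not deposited; fold cut for lowering reported inconsistently.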 Raw values are not corrected between plates. Not given: the amount of reagent.

Purpose: 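Fly genes required for human androgen receptor driven transcription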 (primary screen)
Cell system: Drosophila S2R+ cells
Reagents: long dsRNA against Drosophila genes
Timing: 72 h (48 h, then 24 h hormone)
Treatment: synthetic androgen R1881 at 10 nM for 24 h
Detection: 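Firefly light from an androgen-responsive reporter and Renilla control light per well, raw and unnormalised, for each of two replicates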
Reading the numbers: firefly reporter light: higher = more light from androgen-responsive reporter; Renilla control light: higher = more constitutive control signal (cell number, transfection)
Call rule: 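Hit when the log firefly-to-Renilla ratio dropped or increased by a fixed fold versus the mean of GFP or LacZ controls across duplicate plates; lowering cut given as 1.5 and as 3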
Calls: active = hit: reporter lowered or raised; inactive = no hit

Gene | dsRNA | firefly reporter light, replicate 1 | firefly reporter light, replicate 2 | Renilla control light, replicate 1 | Renilla control light, replicate 2 | Call
CG5455 | DRSC15805 | 60719 | 56993 | 5.43e5 | 5.00e5 | inactive
CG5455 | DRSC27389 | 3.06e5 | 2.89e5 | 4.82e5 | 5.51e5 | inactive
CG9922 | DRSC16579 | 2.21e5 | 2.51e5 | 3.41e6 | 3.46e6 | inactive
CG9922 | DRSC29719 | 5.57e5 | 4.36e5 | 1.56e6 | 1.36e6 | inactive
sdt (stardust) | DRSC17555 | 6.12e5 | 6.04e5 | 1.06e6 | 9.96e5 | inactive
sdt (stardust) | DRSC17556 | 6.91e5 | 7.16e5 | 9.14e5 | 1.02e6 | inactive
sdt (stardust) | DRSC17860 | 5.06e5 | 5.32e5 | 2.42e6 | 3.72e6 | inactive
sdt (stardust) | DRSC17861 | 2.54e5 | 4.26e5 | 3.15e6 | 4.40e6 | inactive
sdt (stardust) | DRSC18022 | 2.89e5 | 4.15e5 | 2.36e6 | 3.56e6 | inactive
sdt (stardust) | DRSC18108 | 2.87e5 | 3.77e5 | 3.35e6 | 2.80e6 | inactive
sdt (stardust) | DRSC26851 | 3.97e5 | 3.82e5 | 1.06e6 | 8.67e5 | inactive
CG13287 | DRSC09961 | 4.19e5 | 3.93e5 | 2.85e6 | 3.52e6 | inactive
CG13287 | DRSC26934 | 3.78e5 | 3.34e5 | 6.67e5 | 4.84e5 | inactive
CG3640 | DRSC04399 | 2.67e5 | 3.07e5 | 2.20e6 | 2.22e6 | inactive
CG7668 | DRSC10901 | 63058 | 51210 | 7.71e5 | 4.60e5 | inactive
AIMP3 (aaRS-interacting multifunctional protein 3) | DRSC04500 | 2.21e5 | 2.11e5 | 1.47e6 | 1.40e6 | inactive
AIMP3 (aaRS-interacting multifunctional protein 3) | DRSC26724 | 3.53e5 | 3.16e5 | 7.07e5 | 8.14e5 | inactive
halo | DRSC00705 | 1.16e5 | 1.59e5 | 1.12e6 | 1.43e6 | inactive
halo | DRSC27447 | 3.20e5 | 2.94e5 | 8.77e5 | 9.09e5 | inactive
Rim2 (Replication in mitochondria 2) | DRSC00520 | 6.62e5 | 9.25e5 | 2.02e6 | 2.38e6 | inactive
Rim2 (Replication in mitochondria 2) | DRSC22699 | 8.29e5 | 7.38e5 | 2.81e5 | 1.67e5 | inactive
CG42700 | DRSC06293 | 4.27e5 | 3.64e5 | 2.00e6 | 1.89e6 | inactive
CG42700 | DRSC23109 | 7.34e5 | 8.49e5 | 1.52e6 | 1.80e6 | inactive
CG42700 | DRSC27344 | 2.57e5 | 2.74e5 | 6.64e5 | 6.92e5 | inactive
CG34353 | DRSC14493 | 2.77e5 | 2.57e5 | 2.96e6 | 3.55e6 | inactive
CG34353 | DRSC14517 | 2.72e5 | 2.63e5 | 2.03e6 | 3.07e6 | inactive
CG34353 | DRSC14563 | 2.60e5 | 2.23e5 | 2.99e6 | 2.96e6 | inactive
CG34353 | DRSC15837 | 2.06e5 | 2.54e5 | 2.15e6 | 2.47e6 | inactive
CG34353 | DRSC22429 | 6.44e5 | 1.21e6 | 7.66e5 | 1.11e6 | inactive
CG34353 | DRSC27095 | 3.11e5 | 3.64e5 | 1.02e6 | 6.79e5 | inactive
CG34353 | DRSC30113 | 8.17e5 | 8.92e5 | 8.54e5 | 1.05e6 | inactive
Pitslre | DRSC11874 | 43883 | 64286 | 4.32e5 | 4.92e5 | inactive
Pitslre | DRSC23346 | 1.87e5 | 2.10e5 | 8.58e5 | 1.11e6 | active
Pitslre | DRSC36715 | – | – | – | – | inactive
Pitslre | DRSC36716 | – | – | – | – | inactive
CG7341 | DRSC10818 | 57594 | 61985 | 5.25e5 | 3.59e5 | inactive
CG42709 | DRSC10277 | 6.40e5 | 5.13e5 | 2.10e6 | 1.97e6 | inactive
CG42709 | DRSC25693 | 8.71e5 | 9.32e5 | 1.06e6 | 1.07e6 | inactive
beta'COP (Coat Protein (coatomer) beta') | DRSC03492 | 6.28e5 | 5.22e5 | 1.26e6 | 6.60e5 | inactive
beta'COP (Coat Protein (coatomer) beta') | DRSC26650 | 2.86e5 | 3.12e5 | 5.45e5 | 5.33e5 | inactive
